For this assay, the target named is TupV C protein fused to a tandem affinity purification (TAP) tag (Tupaia paramyxovirus) (UniProt Q9WS38). The assay can be described thus: affinity purification with mass spectrometry.

Protein sequences, listed by entry. Tags and fused reporters are not part of them.
UniProt Q9WS38: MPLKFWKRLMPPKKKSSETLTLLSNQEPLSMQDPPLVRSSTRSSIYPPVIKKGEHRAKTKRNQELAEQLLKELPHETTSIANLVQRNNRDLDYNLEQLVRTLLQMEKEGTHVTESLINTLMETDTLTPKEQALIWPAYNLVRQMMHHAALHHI
UniProt Q8WUM4: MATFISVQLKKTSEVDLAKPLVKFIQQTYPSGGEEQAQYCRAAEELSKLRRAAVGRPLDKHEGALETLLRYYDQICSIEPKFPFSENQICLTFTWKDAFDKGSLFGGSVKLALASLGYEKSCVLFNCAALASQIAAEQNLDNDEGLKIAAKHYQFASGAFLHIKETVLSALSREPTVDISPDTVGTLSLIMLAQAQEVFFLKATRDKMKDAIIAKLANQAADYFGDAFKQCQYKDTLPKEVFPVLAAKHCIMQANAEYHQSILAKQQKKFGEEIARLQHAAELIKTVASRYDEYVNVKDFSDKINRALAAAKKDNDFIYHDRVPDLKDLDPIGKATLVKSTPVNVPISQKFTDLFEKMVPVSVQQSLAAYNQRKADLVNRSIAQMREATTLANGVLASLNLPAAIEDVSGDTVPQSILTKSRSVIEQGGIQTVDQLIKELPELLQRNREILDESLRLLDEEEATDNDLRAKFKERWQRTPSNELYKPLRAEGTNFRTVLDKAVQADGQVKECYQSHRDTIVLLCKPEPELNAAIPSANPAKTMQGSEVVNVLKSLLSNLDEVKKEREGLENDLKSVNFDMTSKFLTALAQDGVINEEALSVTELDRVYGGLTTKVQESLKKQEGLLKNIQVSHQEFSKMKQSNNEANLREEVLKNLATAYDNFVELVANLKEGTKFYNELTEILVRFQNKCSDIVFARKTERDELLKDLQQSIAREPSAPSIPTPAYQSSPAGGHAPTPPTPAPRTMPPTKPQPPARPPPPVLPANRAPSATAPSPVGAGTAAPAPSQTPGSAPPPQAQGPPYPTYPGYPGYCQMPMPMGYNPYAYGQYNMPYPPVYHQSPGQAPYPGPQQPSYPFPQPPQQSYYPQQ

Results are given in words; binding and its absence hold for the method and conditions named. Binding seen in cells or lysates may run through a third protein. Here binding means that the protein was enriched with, or labelled near, the bait; the list need not be complete. No binding means not detected with the bait.

Turning to “human protein Alix (from UniProt Q8WUM4 1-868)”, the binding result is given as “no binding”.

The record behind these values is publication PMC10046310.
